Results taken from the supplement of paper PMC4604168 (melanoma cell lines).
The list shows a part of the results. Repeats are few or missing, and single values can be far off.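 Imaging used 1,536-well plates; nuclei positive for cleaved PARP by antibody were divided by total DNA-stained nuclei to yield the apoptosis fraction. Doses for screening kept most cells viable, and cell lines differ markedly in resting and induced cleaved-PARP levels.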

What was measured:
Test in all cases: cleaved PARP positive nuclei fraction relative to DMSO control; melanoma cells; higher = more apoptosis
Details in all cases: library dose: low library concentration; 72 h
MZ2-MEL = tested on: MZ2-MEL
MeWo = tested on: MeWo
RPMI7951 = tested on: RPMI7951
RVH-421 = tested on: RVH-421
SkMel28 = tested on: SkMel28
SkMel2 = tested on: SkMel2
SkMel30 = tested on: SkMel30
SkMel5 = tested on: SkMel5
UACC257 = tested on: UACC257
UACC62 = tested on: UACC62

Structure (SMILES)	cleaved PARP positive nuclei fraction (MZ2-MEL) [%]	cleaved PARP positive nuclei fraction (MeWo) [%]	cleaved PARP positive nuclei fraction (RPMI7951) [%]	cleaved PARP positive nuclei fraction (RVH-421) [%]	cleaved PARP positive nuclei fraction (SkMel28) [%]	cleaved PARP positive nuclei fraction (SkMel2) [%]	cleaved PARP positive nuclei fraction (SkMel30) [%]	cleaved PARP positive nuclei fraction (SkMel5) [%]	cleaved PARP positive nuclei fraction (UACC257) [%]	cleaved PARP positive nuclei fraction (UACC62) [%]
Cn1cnc2c(F)c(Nc3ccc(Br)cc3Cl)c(C(=O)NOCCO)cc21 [selumetinib] + N#Cc1c(O)c2c(-c3ccc(-c4ccccc4O)cc3)csc2[nH]c1=O [A769662] (first compound 0.015 µM, partner dose 2 µM)	282	173	59.4	67.2	70.7	136	234	60.7	36.7	109
CCCCCCCCc1ccc(CCC(N)(CO)CO)cc1 [fingolimod] + c1cc(-c2cnn3cc(-c4ccc(OCCN5CCCCC5)cc4)cnc23)ccn1 [Dorsomorphin] (first compound 2 µM, partner dose 0.4 µM)	70	73.8	40.5	425	260	42.8	68.1	42	165	163
CN(c1ncccc1CNc1nc(Nc2ccc3c(c2)CC(=O)N3)ncc1C(F)(F)F)S(C)(=O)=O + O=C(O)C(=O)Nc1sc2c(c1C(=O)O)CCNC2 [TCS401] (first compound 0.08 µM, partner dose 1.66667 µM)	133	71.5	38.4	34.8	275	140	42.9	105	870	123
Cn1cnc2c(F)c(Nc3ccc(Br)cc3Cl)c(C(=O)NOCCO)cc21 [selumetinib] + Cc1cc(N2CCOCC2)cc2[nH]c(-c3c(NC[C@@H](O)c4cccc(Cl)c4)cc[nH]c3=O)nc12 [BMS536924] (first compound 0.015 µM, partner dose 0.2 µM)	470	250	79.3	101	127	147	134	192	110	69.6
CCN(CC)CCNC(=O)c1c(C)[nH]c(/C=C2\C(=O)Nc3ccc(F)cc32)c1C [sunitinib] + N#Cc1c(O)c2c(-c3ccc(-c4ccccc4O)cc3)csc2[nH]c1=O [A769662] (first compound 0.4 µM, partner dose 2 µM)	167	222	107	52.7	56	123	99.2	79.3	139	122
C[C@@H](N)c1ccc(C(=O)Nc2ccnc3[nH]ccc23)cc1 + Cn1cc(/C=C2\C(=O)Nc3cccnc32)c2ccccc21 [GW441756] (first compound 0.4 µM, partner dose 0.4 µM)	78.9	152	58.2	84.6	248	77.3	117	230	193	151
CC1(C)CCC(c2ccc(Cl)cc2)=C(CN2CCN(c3ccc(C(=O)NS(=O)(=O)c4ccc(N[C@H](CCN5CCOCC5)CSc5ccccc5)c(S(=O)(=O)C(F)(F)F)c4)cc3)CC2)C1 + COc1ccc(COc2ccc(Cc3cnc(N)nc3N)cc2OC)cc1 [GW2580] (first compound 0.4 µM, partner dose 1 µM)	424	516	110	135	193	219	76.8	214	125	112
CCN(CC)CCNC(=O)c1c(C)[nH]c(/C=C2\C(=O)Nc3ccc(F)cc32)c1C [sunitinib] + Oc1nc(-c2ccc(C(F)(F)F)cc2)nc2c1CSCC2 [XAV939] (first compound 0.4 µM, partner dose 2 µM)	48	437	64.5	56.6	360	99.9	103	103	113	380
NC(=O)c1ccc(N(C(N)=O)c2c(F)cccc2F)nc1-c1ccc(F)cc1F + c1cc(-c2cnn3cc(-c4ccc(OCCN5CCCCC5)cc4)cnc23)ccn1 [Dorsomorphin] (first compound 0.4 µM, partner dose 0.4 µM)	152	92	307	91.5	58.2	106	100	65.3	101	67.4
CCCCCCCCc1ccc(CCC(N)(CO)CO)cc1 [fingolimod] + O=C1NC(=O)/C(=C/c2ccc(-c3ccc(F)cc3O)o2)S1 [AS252424] (first compound 2 µM, partner dose 1 µM)	126	29.5	109	37.2	158	99.7	42.9	156	166	251
Cn1sc(=O)n(Cc2ccccc2)c1=O + O=C(Nc1ccccc1)c1cc([N+](=O)[O-])ccc1Cl [GW9662] (first compound 0.4 µM, partner dose 2 µM)	40.5	99.8	190	132	44.1	114	102	68.9	165	102
COc1ccc(C2=N[C@@H](c3ccc(Cl)cc3)[C@@H](c3ccc(Cl)cc3)N2C(=O)N2CCNC(=O)C2)c(OC(C)C)c1 [Nutlin-3] + O=C(O)c1ccc(-c2c[nH]c3ncc(-c4ccccc4)cc23)cc1C1CCCC1 [GSK650394] (first compound 0.1 µM, partner dose 0.16 µM)	84.9	114	65.8	218	171	78.5	59.3	80.8	141	169
NC1(c2ccc(-c3nc4ccn5c(=O)[nH]nc5c4cc3-c3ccccc3)cc2)CCC1 + COc1cc2c(Oc3ccc4[nH]c(C)cc4c3F)ncnc2cc1OCCCN1CCCC1 [cediranib] (first compound 0.4 µM, partner dose 0.4 µM)	58.9	63.4	35.6	128	36.8	94.8	76	79.8	101	178
CN(c1ncccc1CNc1nc(Nc2ccc3c(c2)CC(=O)N3)ncc1C(F)(F)F)S(C)(=O)=O + Oc1cc(-c2nc(-c3ccccc3)[nH]c2-c2ccncc2)ccc1Cl [L779450] (first compound 0.08 µM, partner dose 0.2 µM)	103	130	291	120	201	220	248	92	270	224
COc1ccc(C2=N[C@@H](c3ccc(Cl)cc3)[C@@H](c3ccc(Cl)cc3)N2C(=O)N2CCNC(=O)C2)c(OC(C)C)c1 [Nutlin-3] + N#Cc1c(O)c2c(-c3ccc(-c4ccccc4O)cc3)csc2[nH]c1=O [A769662] (first compound 0.1 µM, partner dose 2 µM)	99.2	103	275	145	51.1	105	40	217	95.7	105
CC(=O)O[C@@]12CO[C@@H]1C[C@H](O)[C@@]1(C)C(=O)[C@H](O)C3=C(C)[C@@H](OC(=O)[C@H](O)[C@@H](NC(=O)OC(C)(C)C)c4ccccc4)C[C@@](O)([C@@H](OC(=O)c4ccccc4)[C@H]21)C3(C)C [Docetaxel] + CC(C)(C)c1cnc(CSc2cnc(NC(=O)C3CCNCC3)s2)o1 [SNS-032] (first compound 0.0001 µM, partner dose 0.01 µM)	490	91.8	222	81.4	185	1020	160	165	652	129
CC1(C)CCC(c2ccc(Cl)cc2)=C(CN2CCN(c3ccc(C(=O)NS(=O)(=O)c4ccc(N[C@H](CCN5CCOCC5)CSc5ccccc5)c(S(=O)(=O)C(F)(F)F)c4)cc3)CC2)C1 + O=C(CCCCCCC(=O)Nc1ccccc1)NO [vorinostat] (first compound 0.4 µM, partner dose 0.08 µM)	332	358	127	91.8	144	178	84.6	250	125	109
COc1ccc(C2=N[C@@H](c3ccc(Cl)cc3)[C@@H](c3ccc(Cl)cc3)N2C(=O)N2CCNC(=O)C2)c(OC(C)C)c1 [Nutlin-3] + Cn1cc(/C=C2\C(=O)Nc3cccnc32)c2ccccc21 [GW441756] (first compound 0.1 µM, partner dose 0.4 µM)	108	109	314	61.8	238	18.1	40	91.8	288	83.3
C[C@]1(O)C[C@@H](c2nc(-c3ccc4ccc(-c5ccccc5)nc4c3)c3c(N)nccn32)C1 + CO[C@@H]1[C@H](N(C)C(=O)c2ccccc2)C[C@H]2O[C@]1(C)n1c3ccccc3c3c4c(c5c6ccccc6n2c5c31)C(=O)NC4 [Midostaurin] (first compound 0.4 µM, partner dose 0.08 µM)	127	54.2	157	71.6	307	95.3	58.8	70.8	67.8	104
NC(=O)c1ccc(N(C(N)=O)c2c(F)cccc2F)nc1-c1ccc(F)cc1F + COc1cc(Nc2ncc(F)c(Nc3ccc4c(n3)NC(=O)C(C)(C)O4)n2)cc(OC)c1OC [Tamatinib] (first compound 0.4 µM, partner dose 0.4 µM)	150	112	250	52.5	115	129	245	157	88.3	285
C[C@@H](N)c1ccc(C(=O)Nc2ccnc3[nH]ccc23)cc1 + COc1cc2c(Oc3ccc4[nH]c(C)cc4c3F)ncnc2cc1OCCCN1CCCC1 [cediranib] (first compound 0.4 µM, partner dose 0.4 µM)	248	108	354	82.6	269	187	59.7	99.5	72.8	160

Single entries from the list.
Value of CN(c1ncccc1CNc1nc(Nc2ccc3c(c2)CC(=O)N3)ncc1C(F)(F)F)S(C)(=O)=O + Oc1cc(-c2nc(-c3ccccc3)[nH]c2-c2ccncc2)ccc1Cl [L779450] (first compound 0.08 µM, partner dose 0.2 µM) under cleaved PARP positive nuclei fraction (RVH-421) [%]: 120
Value of NC1(c2ccc(-c3nc4ccn5c(=O)[nH]nc5c4cc3-c3ccccc3)cc2)CCC1 + COc1cc2c(Oc3ccc4[nH]c(C)cc4c3F)ncnc2cc1OCCCN1CCCC1 [cediranib] (first compound 0.4 µM, partner dose 0.4 µM) under cleaved PARP positive nuclei fraction (RPMI7951) [%]: 35.6
